# Laboratory results taken from PubChem BioAssay AID1347076 (National Center for Advancing Translational Sciences (NCATS), 2019).
# About 13,000 (3.2%) of roughly 400,000 compounds were called active. The shares of active, inactive and inconclusive entries below differ from those in the screen. Calls follow the shape of the dose curve; as a rule, active = well fitted cell-killing curve with a large enough effect; inconclusive = small, poorly fitted or top-dose-only effect, or effect the other way; inactive = flat fitted curve, though single readings scatter. Potencies beside an inconclusive call are fits to weak or partial responses and may not hold up.
# Assay: qHTS assay for MDR1-selective chemotherapeutics: Primary screen using the drug-selected MDR subline cells KB-V1; also: nearly all actives have a fitted effect of over 60% in size
# Conditions: KB-V1 MDR cells viability, CellTiter-Glo, 72 h; activity change, negative = cytotoxicity: at 46.1 µM (top of the series)
# Procedure, shortened: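 Cytotoxicity via CellTiter-Glo luminescence after 72 h compound exposure at 37 degrees C. Cells: drug-selected KB-V1 line, DMEM phenol-red free plus 10% FBS. Compounds tested at multiple concentrations; normalized data fitted to concentration-effect curves.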
# % is scaled to controls: 0 for no effect and ±100 for the full control effect; potency is read from the fitted curve at half-maximal effect.
Structure (SMILES),Potency,"activity change, negative = cytotoxicity"
CCn1c(O)c(/C(C)=N/N2CCCCC2c2cccnc2)c(=O)[nH]c1=S (centres undefined),"inconclusive: 6.51 µM [cytotoxic, partial curve]",
CCNC(=O)NC(=O)C(C)OC(=O)c1c(C)nn(Cc2ccccc2Cl)c1Cl (centres undefined),"inconclusive: 5.8 µM [cytotoxic, partial curve]",
O=S(=O)(c1ccc(Cl)cc1)N1CC1c1ccccc1 (centres undefined),"inconclusive: 16.4 µM [cytotoxic, partial curve]",
COC(=O)C1=C(c2ccc3ccccc3c2)C[C@@H]2CC[C@H]1N2C(=O)NC1CCCCC1,,inactive: 8.72%
CC12CN3CCN(C1)CC(C)(C3)C2=NO,,inactive: -0.882%
C[C@@H]1O[C@@H](O[C@@H]2C=C3CC[C@@H]4[C@@H](CC[C@]5(C)[C@H](c6ccc(=O)oc6)CC[C@@]45O)[C@@]3(C)CC2)[C@H](O)[C@H](O)[C@H]1O,active: 0.92 µM,
O=c1c2ccccc2nc(-c2cccs2)n1-c1ccccc1,"inconclusive: 14.6 µM [cytotoxic, partial curve]",
CC(=O)c1cn(Cc2ccccc2F)c2ccccc12,,inactive: 7.56%
CS(=O)(=O)N1Cc2ccccc2-n2nncc2C1,"inconclusive: 18.4 µM [rising, partial curve, poor fit]",
CNC(=O)C[C@H]1CC[C@@H]2NC[C@H](O)COC[C@H]2O1,,inactive: 4.03%
CCN(CC)C(=O)c1ccc(NC(=O)Cn2nc(C)c3ccccc3c2=O)cc1,"inconclusive: 23.1 µM [cytotoxic, partial curve]",
CC(C)CN1Cc2cc(N3CCCCC3)ccc2-n2nncc2C1,,inactive: 15.3%
COc1ccc(NC2Oc3cc4c(cc3C(c3cc(OC)c(OC)c(OC)c3)C2C)OCO4)cc1 (centres undefined),active: 5.8 µM,
CCCCn1c(O)c(C(CC)=NCc2cc(OC)cc(OC)c2)c(=O)[nH]c1=O,active: 3.66 µM,
CC(C)(C)NC(=O)NC(=O)CN1CC=C(c2ccccc2)CC1,,inactive: 0.154%
CN(C)[C@@H]1C(=O)C(C(N)=O)=C(O)[C@@]2(O)C(=O)C3=C(O)c4c(O)cccc4[C@@](C)(O)C3C[C@@H]12 (some centres undefined),,inactive: -2.71%
COc1ccc(C(c2nnnn2-c2c(C)cccc2C)N2CCC3(CC2)C(=O)NCN3c2ccccc2)cc1 (centres undefined),"inconclusive: 29.1 µM [cytotoxic, single point]",
COCCCn1c(N)c(C(=O)NCCC(C)C)c2nc3ccccc3nc21,active: 23.1 µM,
CCC(=NCc1cccnc1)c1c(O)n(Cc2ccccc2)c(=O)[nH]c1=O,,inactive: -14.1%
COc1ccccc1OP(=O)(Nc1cccnc1)Oc1ccccc1OC,active: 9.2 µM,
O=C(CCN1CCCCC1)NCC(=O)Nc1ccc(Br)cc1C(=O)c1ccccc1,active: 18.4 µM,
COc1cc(/C=C/c2nc3ccccc3c(=O)n2-c2ccc(O)cc2)ccc1O,"inconclusive: 29.1 µM [cytotoxic, single point]",
CCOC(=O)c1cccc(C2=C(CNC(=O)c3ccncc3)[C@H]3CC[C@@H](C2)N3Cc2ccccc2)c1,"inconclusive: 9.2 µM [cytotoxic, partial curve, poor fit]",
COC(=O)c1cccc(N=Cc2c(O)n(Cc3ccc(F)cc3)c(=O)[nH]c2=O)c1,"inconclusive: 29.1 µM [rising, partial curve, poor fit]",
Cn1c(O)c(C(=Nc2ccccc2)SCc2ccccc2Cl)c(=O)n(C)c1=O,"inconclusive: 18.4 µM [cytotoxic, single point]",

Structure (SMILES),Potency,"activity change, negative = cytotoxicity"
O=C(Nc1ccc2c(c1)OCCO2)c1cccn(Cc2cccc([N+](=O)[O-])c2)c1=O,,inactive: -13.2%
Cc1cccc(C)c1-n1nnnc1C(CCc1ccccc1)N1CCC(n2c(=O)[nH]c3ccccc32)CC1 (centres undefined),"inconclusive: 29.1 µM [cytotoxic, single point]",
Cc1nc2c(-c3ccccc3)c(C)nn2c(C)c1CCC(=O)N1CCC2(CC1)OCCO2,active: 13 µM,
COc1ccc(-c2nn(CCC#N)cc2C(=O)NCc2ccccc2)cc1,,inactive: 2.83%
COc1cccc(-n2c(O)c(C=NCCN3CCNCC3)c(=O)[nH]c2=S)c1,,inactive: 15.9%
Cc1c(-c2cccc(Cl)c2)nc2ccccc2c1C(=O)N1CCC2(CC1)OCCO2,"inconclusive: 3.66 µM [cytotoxic, partial curve, poor fit]",
COC(=O)C1=C(c2ccc(OCc3ccccc3)cc2)C[C@@H]2CC[C@H]1N2C(=O)NCc1ccc(F)cc1,"inconclusive: 32.6 µM [cytotoxic, single point]",
COc1cc(CC(C)N)c(OC)cc1I (centres undefined),,inactive: 2.26%
Cc1ccc(C(=O)Nc2ccc(Cl)cc2C(=O)c2ccccc2)cc1,active: 20.6 µM,
c1ccc(-c2nnc(C3CC(c4cccnc4)=NO3)o2)cc1 (centres undefined),"inconclusive: 16.4 µM [rising, single point]",
COC(=O)C1=C(c2cc3ccccc3s2)C[C@@H]2CC[C@H]1N2C(=O)NCc1ccc(F)cc1,,inactive: 3.44%
COCCO[C@H]1CC[C@@]2(C)C(=CCC3C2CC[C@@]2(C)C3CC[C@]2(C)O)C1 (some centres undefined),"inconclusive: 29.1 µM [cytotoxic, single point]",
COC(=O)C1=C(c2cccc(OCc3ccccc3)c2)C[C@@H]2CC[C@H]1N2C,"inconclusive: 9.2 µM [cytotoxic, partial curve, poor fit]",
NCCc1c[nH]c2ccc(OCc3ccccc3)cc12,,inactive: -6.44%
COc1ccc(C(=O)C2CCCN(C3CSCCSC3)C2)cc1OC (centres undefined),"inconclusive: 4.61 µM [cytotoxic, full curve]",
OC1/C(=C/c2ccc(C(F)(F)F)cc2)N2CCC1CC2 (centres undefined),"inconclusive: 29.1 µM [rising, single point]",
C=Cn1ccnc1P(=S)(c1nccn1C=C)C1CCCCC1,,inactive: -33%
O=c1c2ccccc2nc(-c2ccc(-c3ccccc3)cc2)n1-c1ccncc1,,inactive: -4.99%
CC12CCC(=O)C=C1CCC1C2C(O)CC2(C)C(O)CCC12 (centres undefined),"inconclusive: 25.9 µM [cytotoxic, single point]",
O=C(c1ccccc1)C1CCCN(Cc2nc(-c3cnccn3)no2)C1 (centres undefined),"inconclusive: 29.1 µM [cytotoxic, single point]",
N#Cc1cc2c(nc1SCC(=O)Nc1cccc(F)c1)C1CCN2CC1,active: 10.3 µM,
CCOC(=O)C(O)(c1cn(C)c2ccccc12)C(F)(F)F (centres undefined),"inconclusive: 20.6 µM [cytotoxic, partial curve, poor fit]",
CCN1CCN(Cc2ccc(OC(F)(F)F)cc2)CC1,,inactive: 1.38%
COC1=C[C@@H]2[C@@H]3Cc4ccc(OC)c(O)c4[C@]2(CCN3C)CC1=O,,inactive: -0.303%
CC12CCC3C(CCC4(O)CC(O)CCC34C=NO)C1(O)CCC2C1=COC(=O)C1 (centres undefined),"inconclusive: 0.164 µM [cytotoxic, full curve, poor fit]",

# Two of these compounds in a different format:
Structure (SMILES) | Potency | activity change, negative = cytotoxicity
NCCc1c[nH]c2ccc(OCc3ccccc3)cc12 |  | inactive: -6.44%
COc1ccc(C(=O)C2CCCN(C3CSCCSC3)C2)cc1OC (centres undefined) | inconclusive: 4.61 µM [cytotoxic, full curve] | 

# Continued:

Structure (SMILES),Potency,"activity change, negative = cytotoxicity"
CSCCC(c1nnnn1Cc1ccccc1)N1CCC(n2c(=O)[nH]c3ccccc32)CC1 (centres undefined),active: 10.3 µM,
O=c1[nH]c(O)c(/C=C2\C=NN=C2c2ccccc2)c(=O)[nH]1,,inactive: 26.5%
CCOc1ccc(-n2c(/C=C/c3ccccc3)nc3ccccc3c2=O)cc1,,inactive: -14.1%
COc1ccc(C(=O)OCC2CN2c2cccc([N+](=O)[O-])c2)cc1 (centres undefined),,inactive: -0.916%
CCCCCn1c(=O)c(C(=O)NCc2ccco2)c(O)c2ccccc21,active: 20.6 µM,
CCCCC12CNCC(C)(CNC1)C2=O,"inconclusive: 29.1 µM [cytotoxic, single point]",
COc1ccc(C2NCc3ccccc3-n3cccc32)cc1 (centres undefined),,inactive: 8.15%
O=C1NC(=O)C2(Cc3c(nc4ccccn4c3=O)N3CCCCCC32)C(=O)N1Cc1ccccc1 (centres undefined),"inconclusive: 20.6 µM [cytotoxic, single point]",
CCOC(=O)C1(c2ccccc2)CCN(CCC(C#N)(c2ccccc2)c2ccccc2)CC1,"inconclusive: 16.4 µM [cytotoxic, partial curve]",
CC(=O)NCC(=O)Nc1ccc(Br)cc1C(=O)c1ccccc1,,inactive: -23.1%
COc1ccc(NC(=O)c2cn(CCC#N)nc2-c2ccc(OC)c(OC)c2)cc1,,inactive: -0.152%
CCN(CC)C(=O)c1ccc(NC(=O)CSc2nnnn2-c2cc(OC)ccc2OC)cc1,"inconclusive: 29.1 µM [cytotoxic, single point]",
CCOP(=O)(CCP(=O)(OCC)OCC)OCC.C[CH2][Sn]([Cl])([Cl])[CH2]C,"inconclusive: 29.1 µM [cytotoxic, single point]",
Cc1ccc(-c2nc3ccccc3c(=O)n2-c2cc(C)ccn2)cc1,active: 14.6 µM,
CCCCCSc1cc(O)c(C(CNC)C(C)C)cc1OC (centres undefined),,inactive: -19.4%
CC(=O)N1N=C2C3CCN(CC3)C2C1c1ccc(F)cc1 (centres undefined),,inactive: -0.792%
C[C@]12CC[C@@H](O)CC1=CC(=O)C1C2CC[C@]2(C)C(=O)CCC12 (some centres undefined),"inconclusive: 13 µM [cytotoxic, partial curve]",
CN(c1ccccc1)P(=O)(N1CC1)N1CC1,,inactive: 16.1%
CC12CCC3C(CCCC4CC(=O)CCC43C)C1CCC2O (centres undefined),active: 7.31 µM,
COc1nc2ccccc2c(=O)n1-c1ccc(C)cc1,"inconclusive: 29.1 µM [cytotoxic, single point]",
COc1ccc(-n2c(/C=C/c3ccc(O)cc3)nc3ccccc3c2=O)cc1,"inconclusive: 23.1 µM [cytotoxic, single point]",
Cc1ccccc1C1=NCC(=O)N(CC(=O)NCc2ccco2)c2sc3c(c21)CCCC3,active: 18.4 µM,
COC(=O)C1=C(c2ccc(OC(F)(F)F)cc2)C[C@@H]2CC[C@H]1N2C(=O)NC1CCCCC1,"inconclusive: 32.6 µM [cytotoxic, single point]",
O=[N+]([O-])c1ccc(C(c2ccc([N+](=O)[O-])cc2)c2ccc([N+](=O)[O-])cc2)cc1,"inconclusive: 29.1 µM [cytotoxic, single point]",

# Entries shown so far with a furan ring, fused or not (2):
Structure (SMILES),Potency,"activity change, negative = cytotoxicity"
CCCCCn1c(=O)c(C(=O)NCc2ccco2)c(O)c2ccccc21,active: 20.6 µM,
Cc1ccccc1C1=NCC(=O)N(CC(=O)NCc2ccco2)c2sc3c(c21)CCCC3,active: 18.4 µM,
